From the supplement of paper PMC10849652
Some of the results follow.

Amino acid sequences for entries named in this document (tags omitted). A change or cut given only in a name is not applied to a line headed by its entry.
UniProt Q01581: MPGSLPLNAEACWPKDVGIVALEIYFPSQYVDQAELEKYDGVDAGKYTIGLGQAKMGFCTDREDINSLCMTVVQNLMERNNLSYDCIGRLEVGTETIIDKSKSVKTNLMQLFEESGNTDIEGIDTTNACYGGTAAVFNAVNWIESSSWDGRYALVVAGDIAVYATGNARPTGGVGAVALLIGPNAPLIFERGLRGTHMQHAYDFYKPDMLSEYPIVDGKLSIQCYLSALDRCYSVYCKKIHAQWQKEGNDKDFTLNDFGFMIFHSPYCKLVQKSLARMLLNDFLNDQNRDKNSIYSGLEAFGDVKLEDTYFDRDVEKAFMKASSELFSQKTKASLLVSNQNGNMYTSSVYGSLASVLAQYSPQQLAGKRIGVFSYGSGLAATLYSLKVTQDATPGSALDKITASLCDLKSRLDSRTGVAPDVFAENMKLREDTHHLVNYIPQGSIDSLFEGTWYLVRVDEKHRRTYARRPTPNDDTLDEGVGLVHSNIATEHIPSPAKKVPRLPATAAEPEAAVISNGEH
UniProt Q58FG1, whole entry, looked up: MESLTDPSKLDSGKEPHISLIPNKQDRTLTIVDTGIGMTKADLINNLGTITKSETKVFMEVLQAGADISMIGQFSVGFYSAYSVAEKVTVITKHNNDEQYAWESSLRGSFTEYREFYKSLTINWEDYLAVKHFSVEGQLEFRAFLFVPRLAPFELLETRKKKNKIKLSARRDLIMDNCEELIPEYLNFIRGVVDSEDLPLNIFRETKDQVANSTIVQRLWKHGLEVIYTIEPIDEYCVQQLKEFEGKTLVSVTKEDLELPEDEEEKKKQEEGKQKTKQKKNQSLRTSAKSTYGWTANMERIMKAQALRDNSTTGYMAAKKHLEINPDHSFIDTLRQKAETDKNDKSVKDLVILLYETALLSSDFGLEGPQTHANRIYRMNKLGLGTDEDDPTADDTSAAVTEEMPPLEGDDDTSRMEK
UniProt Q58FF7, whole entry, looked up: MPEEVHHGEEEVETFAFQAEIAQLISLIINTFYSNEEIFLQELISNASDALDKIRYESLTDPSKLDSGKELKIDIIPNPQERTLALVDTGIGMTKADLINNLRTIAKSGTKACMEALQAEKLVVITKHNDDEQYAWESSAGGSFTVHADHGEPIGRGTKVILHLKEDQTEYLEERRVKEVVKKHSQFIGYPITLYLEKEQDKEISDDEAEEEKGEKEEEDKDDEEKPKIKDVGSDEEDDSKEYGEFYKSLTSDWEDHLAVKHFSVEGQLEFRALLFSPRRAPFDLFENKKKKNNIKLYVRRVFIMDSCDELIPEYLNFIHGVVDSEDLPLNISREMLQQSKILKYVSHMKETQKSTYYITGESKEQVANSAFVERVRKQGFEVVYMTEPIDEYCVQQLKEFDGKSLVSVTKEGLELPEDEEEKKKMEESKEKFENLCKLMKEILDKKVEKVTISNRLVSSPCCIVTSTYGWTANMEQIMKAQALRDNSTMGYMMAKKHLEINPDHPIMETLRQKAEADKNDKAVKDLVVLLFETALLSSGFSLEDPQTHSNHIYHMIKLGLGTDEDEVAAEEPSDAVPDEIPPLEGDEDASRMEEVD
UniProt Q58FF6, whole entry, looked up: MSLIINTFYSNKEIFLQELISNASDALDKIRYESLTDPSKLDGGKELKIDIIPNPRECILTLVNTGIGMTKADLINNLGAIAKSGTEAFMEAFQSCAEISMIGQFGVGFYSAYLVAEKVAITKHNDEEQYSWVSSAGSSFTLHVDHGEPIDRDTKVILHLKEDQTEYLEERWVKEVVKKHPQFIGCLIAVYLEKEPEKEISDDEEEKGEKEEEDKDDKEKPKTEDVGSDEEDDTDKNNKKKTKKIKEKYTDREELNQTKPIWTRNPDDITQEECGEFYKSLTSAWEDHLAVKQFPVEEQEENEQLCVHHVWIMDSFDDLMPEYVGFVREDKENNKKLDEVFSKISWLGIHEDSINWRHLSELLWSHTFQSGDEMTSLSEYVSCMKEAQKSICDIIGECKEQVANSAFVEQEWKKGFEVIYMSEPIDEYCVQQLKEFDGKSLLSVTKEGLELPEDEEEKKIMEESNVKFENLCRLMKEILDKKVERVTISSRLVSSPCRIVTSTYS
UniProt Q92506: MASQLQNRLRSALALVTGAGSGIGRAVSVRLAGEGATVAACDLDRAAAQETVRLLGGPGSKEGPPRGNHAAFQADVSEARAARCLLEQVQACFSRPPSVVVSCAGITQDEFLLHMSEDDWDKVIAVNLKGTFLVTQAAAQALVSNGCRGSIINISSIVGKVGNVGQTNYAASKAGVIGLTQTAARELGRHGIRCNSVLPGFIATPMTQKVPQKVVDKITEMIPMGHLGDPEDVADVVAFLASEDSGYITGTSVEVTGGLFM
UniProt O14979: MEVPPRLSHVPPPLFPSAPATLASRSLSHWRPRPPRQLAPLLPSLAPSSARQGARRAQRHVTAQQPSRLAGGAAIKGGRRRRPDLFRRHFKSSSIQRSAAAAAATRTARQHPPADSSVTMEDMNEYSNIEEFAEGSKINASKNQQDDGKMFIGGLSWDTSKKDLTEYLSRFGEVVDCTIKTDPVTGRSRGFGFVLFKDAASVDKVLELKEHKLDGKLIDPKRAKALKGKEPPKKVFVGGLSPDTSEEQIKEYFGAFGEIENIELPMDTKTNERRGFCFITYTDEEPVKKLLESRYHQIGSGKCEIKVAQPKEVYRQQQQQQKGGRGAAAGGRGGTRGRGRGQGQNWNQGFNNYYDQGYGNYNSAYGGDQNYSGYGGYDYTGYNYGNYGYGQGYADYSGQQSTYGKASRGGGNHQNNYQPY
UniProt Q53T59: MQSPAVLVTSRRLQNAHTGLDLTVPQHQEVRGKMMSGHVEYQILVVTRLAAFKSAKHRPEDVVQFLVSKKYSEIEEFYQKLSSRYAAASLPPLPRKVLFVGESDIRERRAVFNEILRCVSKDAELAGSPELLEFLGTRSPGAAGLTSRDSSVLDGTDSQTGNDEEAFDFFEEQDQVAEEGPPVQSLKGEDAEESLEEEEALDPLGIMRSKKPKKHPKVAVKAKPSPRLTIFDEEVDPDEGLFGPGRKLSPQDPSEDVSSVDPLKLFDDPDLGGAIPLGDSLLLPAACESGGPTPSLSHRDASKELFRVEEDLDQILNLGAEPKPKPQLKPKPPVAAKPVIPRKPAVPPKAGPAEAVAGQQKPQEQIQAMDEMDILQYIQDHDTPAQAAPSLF
UniProt Q9NWY4: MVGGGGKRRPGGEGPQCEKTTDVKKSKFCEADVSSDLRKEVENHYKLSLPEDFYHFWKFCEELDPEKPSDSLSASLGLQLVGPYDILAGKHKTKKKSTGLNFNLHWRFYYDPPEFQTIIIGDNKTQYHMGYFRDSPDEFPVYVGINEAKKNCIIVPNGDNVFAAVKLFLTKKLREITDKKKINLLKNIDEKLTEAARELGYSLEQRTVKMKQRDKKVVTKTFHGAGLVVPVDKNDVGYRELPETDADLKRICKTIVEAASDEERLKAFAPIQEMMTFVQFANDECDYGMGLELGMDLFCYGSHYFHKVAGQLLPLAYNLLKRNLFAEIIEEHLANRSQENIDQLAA
UniProt O00291: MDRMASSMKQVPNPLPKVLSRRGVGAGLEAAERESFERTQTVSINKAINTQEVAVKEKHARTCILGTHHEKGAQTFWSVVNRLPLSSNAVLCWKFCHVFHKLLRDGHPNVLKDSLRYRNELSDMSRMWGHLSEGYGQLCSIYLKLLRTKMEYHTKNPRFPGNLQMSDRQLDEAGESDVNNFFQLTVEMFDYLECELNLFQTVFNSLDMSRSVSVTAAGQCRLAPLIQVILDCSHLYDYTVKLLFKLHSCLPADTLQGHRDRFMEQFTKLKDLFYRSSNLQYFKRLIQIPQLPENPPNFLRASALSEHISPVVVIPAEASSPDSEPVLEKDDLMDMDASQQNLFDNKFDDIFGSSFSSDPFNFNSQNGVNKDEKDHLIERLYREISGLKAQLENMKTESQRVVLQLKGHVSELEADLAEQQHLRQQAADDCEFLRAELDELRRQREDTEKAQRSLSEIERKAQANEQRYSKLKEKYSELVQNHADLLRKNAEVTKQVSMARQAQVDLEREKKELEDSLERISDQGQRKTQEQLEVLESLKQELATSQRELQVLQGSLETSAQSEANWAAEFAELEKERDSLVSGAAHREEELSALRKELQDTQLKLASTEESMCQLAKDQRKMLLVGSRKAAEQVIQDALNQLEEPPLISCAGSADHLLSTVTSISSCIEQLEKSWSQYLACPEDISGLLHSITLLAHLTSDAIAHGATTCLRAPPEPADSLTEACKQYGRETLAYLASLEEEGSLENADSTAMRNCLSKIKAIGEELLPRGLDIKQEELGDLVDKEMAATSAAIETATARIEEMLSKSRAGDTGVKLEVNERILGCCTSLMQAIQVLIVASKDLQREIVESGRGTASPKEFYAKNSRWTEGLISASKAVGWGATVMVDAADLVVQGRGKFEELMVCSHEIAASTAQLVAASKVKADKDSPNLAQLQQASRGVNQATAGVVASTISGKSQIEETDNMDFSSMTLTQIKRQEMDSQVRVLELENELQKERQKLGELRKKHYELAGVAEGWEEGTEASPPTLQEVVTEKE
UniProt P05114: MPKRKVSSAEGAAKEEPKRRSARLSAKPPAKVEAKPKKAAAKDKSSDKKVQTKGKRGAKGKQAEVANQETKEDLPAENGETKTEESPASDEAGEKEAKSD
UniProt P31943: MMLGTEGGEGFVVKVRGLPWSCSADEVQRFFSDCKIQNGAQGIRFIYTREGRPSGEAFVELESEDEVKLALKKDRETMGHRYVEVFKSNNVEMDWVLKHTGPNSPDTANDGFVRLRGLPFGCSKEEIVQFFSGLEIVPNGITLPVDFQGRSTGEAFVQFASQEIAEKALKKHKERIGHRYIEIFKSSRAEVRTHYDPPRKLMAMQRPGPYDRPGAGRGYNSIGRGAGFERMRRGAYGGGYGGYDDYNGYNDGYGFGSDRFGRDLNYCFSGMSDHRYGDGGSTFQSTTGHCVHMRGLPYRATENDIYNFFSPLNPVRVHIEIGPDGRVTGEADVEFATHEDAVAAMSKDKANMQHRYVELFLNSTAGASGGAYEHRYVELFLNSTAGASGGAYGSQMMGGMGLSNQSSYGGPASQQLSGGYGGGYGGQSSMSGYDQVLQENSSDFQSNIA
UniProt O15347: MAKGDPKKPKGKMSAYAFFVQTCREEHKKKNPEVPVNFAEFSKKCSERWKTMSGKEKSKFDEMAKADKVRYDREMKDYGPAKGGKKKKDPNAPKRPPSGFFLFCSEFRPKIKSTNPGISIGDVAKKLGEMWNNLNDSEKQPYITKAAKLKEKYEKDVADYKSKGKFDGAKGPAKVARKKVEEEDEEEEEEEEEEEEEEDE
UniProt P09429: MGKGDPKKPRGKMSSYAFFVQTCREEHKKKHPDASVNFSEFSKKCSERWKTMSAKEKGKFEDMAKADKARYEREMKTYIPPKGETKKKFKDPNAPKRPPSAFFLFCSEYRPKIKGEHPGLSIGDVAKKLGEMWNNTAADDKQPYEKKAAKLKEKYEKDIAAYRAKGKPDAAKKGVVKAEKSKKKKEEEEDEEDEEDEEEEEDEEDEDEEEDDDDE
UniProt Q9BXL5: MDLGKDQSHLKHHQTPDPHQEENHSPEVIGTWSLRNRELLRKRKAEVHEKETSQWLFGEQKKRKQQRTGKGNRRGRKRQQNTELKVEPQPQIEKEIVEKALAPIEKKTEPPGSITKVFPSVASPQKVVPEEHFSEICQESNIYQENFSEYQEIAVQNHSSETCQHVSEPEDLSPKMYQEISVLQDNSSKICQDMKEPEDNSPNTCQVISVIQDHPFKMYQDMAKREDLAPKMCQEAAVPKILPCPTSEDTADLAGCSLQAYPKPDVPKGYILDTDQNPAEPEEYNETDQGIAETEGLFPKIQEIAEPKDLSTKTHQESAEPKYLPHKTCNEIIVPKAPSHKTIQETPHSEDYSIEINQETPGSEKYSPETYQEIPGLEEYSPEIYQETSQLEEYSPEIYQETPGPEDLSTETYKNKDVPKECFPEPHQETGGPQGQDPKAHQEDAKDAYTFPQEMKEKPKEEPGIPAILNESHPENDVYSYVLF
UniProt P0DMV8, whole entry, looked up: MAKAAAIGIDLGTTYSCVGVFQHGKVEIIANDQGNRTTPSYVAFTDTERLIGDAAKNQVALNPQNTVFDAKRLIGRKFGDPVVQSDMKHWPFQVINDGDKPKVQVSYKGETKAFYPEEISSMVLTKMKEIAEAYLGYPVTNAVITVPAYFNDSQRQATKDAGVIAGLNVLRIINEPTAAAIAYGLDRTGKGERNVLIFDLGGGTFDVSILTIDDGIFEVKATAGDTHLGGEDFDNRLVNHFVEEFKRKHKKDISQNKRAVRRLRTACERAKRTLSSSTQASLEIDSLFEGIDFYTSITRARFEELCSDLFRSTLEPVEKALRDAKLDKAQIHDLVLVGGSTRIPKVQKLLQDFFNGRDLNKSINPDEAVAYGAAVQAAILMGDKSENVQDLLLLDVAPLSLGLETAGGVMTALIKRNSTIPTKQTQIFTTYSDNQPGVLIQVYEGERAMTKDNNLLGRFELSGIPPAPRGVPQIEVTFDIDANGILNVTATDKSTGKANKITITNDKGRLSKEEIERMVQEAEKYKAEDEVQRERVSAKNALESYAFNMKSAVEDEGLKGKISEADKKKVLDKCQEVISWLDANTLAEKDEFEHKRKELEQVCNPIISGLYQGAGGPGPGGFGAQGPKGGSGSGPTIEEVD

Compound: O=C(CCCCCCC(=O)Nc1ccccc1)NO [vorinostat]
Experiment: log2 fold change, soluble protein after heating vs DMSO (PISA); higher = thermal stabilisation; K562 lysate, 10 uM; active = over 0.2 and 3.5 SD of the protein, either way, in both replicates (recomputed)
Summary of the method: (§1)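 To prepare the extract, K562 pellets were dounce-homogenised in PBS pH 7.4 with 1 mM MgCl2, giving crude material at 1 mg/mL protein. This was treated with 10 μM compound for 30 min, then heated in aliquots for 3 min over 48°C-58°C before pooling and addition of NP-40 to 0.5% at 4°C. Centrifugation at 21,000xg for 90 min left soluble protein in the supernatant, which TMTpro 16plex LC-MS/MS quantified with equalised channel sums. Results are log-two fold changes in thermal stability compared with solvent controls, from duplicates.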

log2 fold change, active:
HMGCS1 (UniProt Q01581) 0.53

log2 fold change, inactive:
HECTD1 (UniProt Q9ULT8) -0.195, HSP90AA4P (UniProt Q58FG1) 0.047, HPS1 (UniProt Q92902) -0.142, HSP90AB3P (UniProt Q58FF7) 0.047, HPS4 isoform 4 (UniProt Q9NQG7) -0.167, HSP90AB4P (UniProt Q58FF6) 0.174, HP1BP3 (UniProt Q5SSJ5) 0.143, HSD17B8 (UniProt Q92506) 0.053, HNRNPDL (UniProt O14979) 0.133, HS1BP3 (UniProt Q53T59) 0.139, HMGN4 (UniProt O00479) 0.192, HNRNPA1 (UniProt H0YH80) 0.115, HPF1 (UniProt Q9NWY4) -0.145, HHEX (UniProt Q03014) 0.106, HJURP (UniProt Q8NCD3) -0.244, HELZ2 (UniProt Q9BYK8) 0.01, HIP1 (UniProt O00291) -0.004, HNRNPK isoform 3 (UniProt P61978) 0.112, HSD17B11 (UniProt Q8NBQ5) 0.076, HMGN1 (UniProt P05114) 0.134, HOXB9 (UniProt P17482) -0.251, HNRNPH1 (UniProt P31943) -0.172, HMGB3 (UniProt O15347) 0.127, HNRNPR (UniProt O43390) 0.118, HEXA (UniProt P06865) 0.122, HMGB1 (UniProt P09429) 0.083, HEMGN (UniProt Q9BXL5) 0.082, HSPA1A (UniProt P0DMV8) 0.108, HPS5 (UniProt Q9UPZ3) 0.069

Compound: O=C(O)c1ccc2c(c1)nc(Nc1cccc(Cl)c1)c1ccncc12 [silmitasertib]
Experiment: as above
Summary of the method: as §1

log2 fold change, inactive:
HECTD1 (UniProt Q9ULT8) 0.049, HSP90AA4P (UniProt Q58FG1) -0.087, HPS1 (UniProt Q92902) 0.092, HSP90AB3P (UniProt Q58FF7) 0.005, HPS4 isoform 4 (UniProt Q9NQG7) 0.038, HSP90AB4P (UniProt Q58FF6) -0.026, HP1BP3 (UniProt Q5SSJ5) 0.009, HSD17B8 (UniProt Q92506) 0.012, HNRNPDL (UniProt O14979) -0.01, HS1BP3 (UniProt Q53T59) -0.038, HMGN4 (UniProt O00479) -0.012, HNRNPA1 (UniProt H0YH80) 0.01, HPF1 (UniProt Q9NWY4) 0.019, HHEX (UniProt Q03014) -0.021, HJURP (UniProt Q8NCD3) -0.017, HELZ2 (UniProt Q9BYK8) 0.025, HIP1 (UniProt O00291) 0.003, HNRNPK isoform 3 (UniProt P61978) -0.011, HSD17B11 (UniProt Q8NBQ5) -0.008, HMGN1 (UniProt P05114) -0.019, HOXB9 (UniProt P17482) -0.136, HMGCS1 (UniProt Q01581) 0.011, HNRNPH1 (UniProt P31943) 0.016, HMGB3 (UniProt O15347) -0.007, HNRNPR (UniProt O43390) 0.026, HEXA (UniProt P06865) -0.017, HMGB1 (UniProt P09429) 0.017, HEMGN (UniProt Q9BXL5) -0.032, HSPA1A (UniProt P0DMV8) -0.014, HPS5 (UniProt Q9UPZ3) 0.043
